PubChem BioAssay AID602196, INSERM | 2012
Assay: 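Genes whose knock-down alters cisplatin killing of lung cancer cells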. Cells: human A549 lung cancer cells. Reagent: siRNA pair against human genes. Timing: 48 h transfection before cisplatin; time from cisplatin to read-out not stated. Conditions: cisplatin at a dose killing half of control-siRNA cells; exact dose and duration not given. Read-out: 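Shift in cisplatin death relative to control siRNA, from -50 (all cells die) to +50 (no cells die); siRNAs harmful on their own scored 0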. Reading the numbers: two-siRNA summed score (-2 to +2): higher = both siRNAs protect from cisplatin killing; -2 means both sensitise; mean protection from cisplatin (shift in death) and protection from cisplatin (shift in death), siRNA C: higher = protection from cisplatin killing. Hit rule: 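siRNAs harmful alone (LDH or WST-1) get 0; others get +1 for less and -1 for more cisplatin killing; genes are active when the two siRNAs give the same sign, summing to ±2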. Calls: active = both siRNAs shift cisplatin killing the same way; inactive = no consistent shift, or siRNA harmful alone.
The deposit covers about 23,000 reagents; this is a random part of them. Over the whole deposit, 455 (2%) were called active. 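Active includes both protection and sensitisation; some change values fall well beyond the stated -50 to +50 range.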 Unmarked entries are inactive. Further read-outs or replicates are left out here. Not given: the amount of reagent.

| gene symbol | PubChem SID | two-siRNA summed score (-2 to +2) | mean protection from cisplatin (shift in death) (%) | protection from cisplatin (shift in death), siRNA C (%) |
| --- | --- | --- | --- | --- |
| SLC2A14 | SID131516873 | 0 | 11.8 | 12.3 |
| ZNF37A | SID131510445 | 0 | 3.3 | 8 |
| ACADM | SID131521347 | 1 | 13.1 | 11.3 |
| RAP2C | SID131501683 | -1 | -8.1 | -27.5 |
| RNF111 | SID131503344 | 0 | -10.8 | -14.7 |
| NELL2 | SID131504476 | 0 | -5.3 | -12.6 |
| FSCB | SID131522012 | 1 | 15.8 | 29.3 |
| S100A11 | SID131519304 | 1 | 4.6 | -11.4 |
| SMS | SID131504638 | 0 | -4.9 | -16.4 |
| PEX14 | SID131516975 | 0 | 12.1 | -2.9 |
| NRG2 | SID131512481 | 0 | 5.5 | 19.8 |
| MTOR | SID131505799 | 0 | -2.6 | 11.1 |
| SNRPD2 | SID131518875 | 0 | 34.9 | 37.3 |
| MLLT1 | SID131504572 | 0 | -5 | -9.9 |
| OR12D2 | SID131501976 | -1 | -6.1 | -14.3 |
| ANKRD55 | SID131510804 | 0 | 3.6 | -3.5 |
| PRIM1 | SID131500292 | -2 (active) | -36.4 | -47.5 |
| GPNMB | SID131501863 | -1 | -6.9 | 5.2 |
| MTHFD2 | SID131512303 | 0 | 5.3 | 11.2 |
| LOC441755 | SID131513654 | 0 | 6.8 | 5.5 |
| HNRNPH3 | SID131520640 | 1 | 10.6 | 13.6 |
| CRIPTO | SID131503715 | 0 | -8.2 | -28.1 |
| GIMAP4 | SID131503867 | 0 | -7.4 | -8.8 |
| TNFSF8 | SID131522705 | 1 | 22 | 19 |
| PLIN4 | SID131511314 | 0 | 4.2 | 14.6 |
| LEFTY1 | SID131502797 | 0 | -42.5 | -37.3 |
| DNAH3 | SID131502347 | -1 | -3.2 | -15.1 |
| EIF4EBP3 | SID131513211 | 0 | 6.3 | 22.6 |
| PHB2 | SID131501836 | -1 | -7.1 | 8.9 |
| CYP26C1 | SID131515308 | 0 | 9 | 14.9 |
| LOC442454 | SID131514164 | 0 | 7.5 | 14 |
| ZFP3 | SID131502287 | -1 | -3.7 | -12.8 |
| MGST1 | SID131510153 | 0 | 2.9 | -4.9 |
| TNFSF13B | SID131502870 | 0 | -21.3 | -0.3 |
| SLC30A10 | SID131511303 | 0 | 4.2 | -3 |
| SLC22A25 | SID131521388 | 1 | 13.2 | 8.1 |
| STMN2 | SID131512796 | 0 | 5.9 | 28.5 |
| ZCCHC2 | SID131504350 | 0 | -5.7 | -2.2 |
| ZCCHC2 | SID131513851 | 0 | 7.1 | 5.6 |
| CIAO1 | SID131509361 | 0 | 2.1 | 5.2 |
| LINC00921 | SID131522330 | 1 | 17.7 | 2.5 |
| INSM2 | SID131505224 | 0 | -3.5 | -5.1 |
| TLR1 | SID131509620 | 0 | 2.3 | -0.6 |
| UBE2H | SID131516772 | 0 | 11.6 | 14.6 |
| FOXN3 | SID131522242 | 1 | 17.1 | 17.1 |
| NPPB | SID131502981 | 0 | -16.6 | -31.4 |
| FLJ10157 | SID131504057 | 0 | -6.7 | -9.9 |
| LOC440045 | SID131513616 | 0 | 6.8 | 9.4 |
| PYGM | SID131517086 | 0 | 12.4 | 11.3 |
| BRCA1 | SID131503070 | 0 | -14.3 | -25 |
| TMEM105 | SID131503377 | 0 | -10.5 | -9.5 |
| RUBCN | SID131520403 | 1 | 9.8 | 6.2 |
| JAKMIP1 | SID131503809 | 0 | -7.7 | -6.7 |
| DDX53 | SID131509510 | 0 | 2.2 | 12.3 |
| NDUFS7 | SID131513442 | 0 | 6.6 | 0.8 |
| PURA | SID131513606 | 0 | 6.8 | 7 |
| ATP1B1 | SID131522441 | 1 | 18.6 | 19.3 |

Active calls, of those listed so far:
| gene symbol | PubChem SID | two-siRNA summed score (-2 to +2) | mean protection from cisplatin (shift in death) (%) | protection from cisplatin (shift in death), siRNA C (%) |
| --- | --- | --- | --- | --- |
| PRIM1 | SID131500292 | -2 (active) | -36.4 | -47.5 |
